This test addresses PgiDAH7PS (separated DAH7PS domain of PgiDAH7PS-CM) (Porphyromonas gingivalis) (UniProt B2RJM7). Nature of the test: SEC; analytical SEC on ENrich SEC 650 calibrated with mass standards; 50 mM BTP pH 7.4, 4°C, protein loaded at 1 mg/mL, 0.2 mL/min; apparent mass compared with theoretical monomer mass; both purified.

No constants are given. Whether binding was seen depends on the method and setting.

B1: PgiDAH7PS (separated DAH7PS domain of PgiDAH7PS-CM) (domain or fragment, UniProt B2RJM7 1-258)
chain: MKYCDFTPLPLPSEPNTTVIAGPCSAESEEQIMTTARALRDEAGIRIFRAGLWKPRTLPGCFEGVGETGLPWLVRVQDELDMLATTEVATREHVEQAMQAGIRILWLGARTTSNPFAVQEIADTIGKDESVIVLVKNPISPDLDLWTGALERLRQSGVRQIGAIHRGFSTYATKTFRNPPHWQIPFDLKRRFPSLTILCDPSHITGQRDRIESVSQQAMEMNFDGLIIESHCCPDKALSDASQQITPTVLAQILRRLR
Take B1: the binding result is reported as “no binding (tested: 1 mg/mL)”.

The record behind these values is PMC12202928, “Bidirectional interdomain crosstalk in a Porphyromonas gingivalis chimeric enzyme coordinates catalytic synergy for aromatic amino acid biosynthesis” (Frontiers in Microbiology, 2025).
